The effect of the compound repeats well; differences between the knockouts mostly do not.
Test system: SKBR3
Assay: relative cell number vs DMSO control (72 h) (% of DMSO); higher = less growth inhibition (more cells)
Experimental: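 QMAP-Seq: a pool of 5 breast cancer cell lines (ZR-75-1, SKBR3, HCC-38, MDA-MB-231, BT-20), each carrying 12 doxycycline-inducible Cas9 sgRNA perturbations (11 knockouts plus non-targeting sgNT), was treated with compounds for 72 h at four 10-fold doses (10 nM-10 uM or 1 nM-1 uM range). Barcodes were amplified and sequenced, and cell number was interpolated from 293T spike-in standard curves. The result is expressed as % of the median of DMSO wells. Two biological replicates.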

CCC[C@H](NC(=O)/C(C#N)=C/c1cccc(Br)n1)c1ccccc1 [WP1130]
Conditions | relative cell number
sgRNA knockout: sgATF3, 10 nM | 99.9
sgRNA knockout: sgATF3, 100 nM | 109
sgRNA knockout: sgATF3, 1000 nM | 91.1
sgRNA knockout: sgATF3, 10000 nM | 5.42
sgRNA knockout: sgATF4, 10 nM | 94
sgRNA knockout: sgATF4, 100 nM | 94.8
sgRNA knockout: sgATF4, 1000 nM | 91.9
sgRNA knockout: sgATF4, 10000 nM | 7.67
sgRNA knockout: sgATF6, 10 nM | 104
sgRNA knockout: sgATF6, 100 nM | 82.6
sgRNA knockout: sgATF6, 1000 nM | 99.8
sgRNA knockout: sgATF6, 10000 nM | 9.44
sgRNA knockout: sgATG7, 10 nM | 100
sgRNA knockout: sgATG7, 100 nM | 112
sgRNA knockout: sgATG7, 1000 nM | 102
sgRNA knockout: sgATG7, 10000 nM | 5.67
sgRNA knockout: sgERN1, 10 nM | 115
sgRNA knockout: sgERN1, 100 nM | 86.6
sgRNA knockout: sgERN1, 1000 nM | 92.4
sgRNA knockout: sgERN1, 10000 nM | 9.67
sgRNA knockout: sgHSF1, 10 nM | 95.9
sgRNA knockout: sgHSF1, 100 nM | 92.3
sgRNA knockout: sgHSF1, 1000 nM | 94.2
sgRNA knockout: sgHSF1, 10000 nM | 7.8
sgRNA knockout: sgHSF2, 10 nM | 104
sgRNA knockout: sgHSF2, 100 nM | 101.7
sgRNA knockout: sgHSF2, 1000 nM | 99.1
sgRNA knockout: sgHSF2, 10000 nM | 8.44
sgRNA knockout: sgKEAP1, 10 nM | 100
sgRNA knockout: sgKEAP1, 100 nM | 105
sgRNA knockout: sgKEAP1, 1000 nM | 89.3
sgRNA knockout: sgKEAP1, 10000 nM | 6.17
sgRNA knockout: sgNFE2L2, 10 nM | 89.6
sgRNA knockout: sgNFE2L2, 100 nM | 92.6
sgRNA knockout: sgNFE2L2, 1000 nM | 101
sgRNA knockout: sgNFE2L2, 10000 nM | 8.01
sgRNA knockout: sgSLC35F2, 10 nM | 103
sgRNA knockout: sgSLC35F2, 100 nM | 81.9
sgRNA knockout: sgSLC35F2, 1000 nM | 86.7
sgRNA knockout: sgSLC35F2, 10000 nM | 8.19
sgRNA knockout: sgXBP1, 10 nM | 112
sgRNA knockout: sgXBP1, 100 nM | 84
sgRNA knockout: sgXBP1, 1000 nM | 87.2
sgRNA knockout: sgXBP1, 10000 nM | 10

Reference: the supplement of paper PMC7661543
